Laboratory results: PMC5562876, “The integration of Gβ and MAPK signaling cascade in zygote development” (Scientific Reports, 2017)
Where a chain is given by its changes, count along the chain named. Names may count otherwise. No constants are given. Whether binding was seen depends on the method and setting. In cells and extracts the contact can be indirect. Some results given as binding are weak or reduced against the parent protein; the word gives no strength. For some assays here: Sequences can lack the tags named with a protein. One block for each binder: values may come before it.

By UniProt entry, the sequences of proteins in these tests, tags left out.
UniProt Q39026: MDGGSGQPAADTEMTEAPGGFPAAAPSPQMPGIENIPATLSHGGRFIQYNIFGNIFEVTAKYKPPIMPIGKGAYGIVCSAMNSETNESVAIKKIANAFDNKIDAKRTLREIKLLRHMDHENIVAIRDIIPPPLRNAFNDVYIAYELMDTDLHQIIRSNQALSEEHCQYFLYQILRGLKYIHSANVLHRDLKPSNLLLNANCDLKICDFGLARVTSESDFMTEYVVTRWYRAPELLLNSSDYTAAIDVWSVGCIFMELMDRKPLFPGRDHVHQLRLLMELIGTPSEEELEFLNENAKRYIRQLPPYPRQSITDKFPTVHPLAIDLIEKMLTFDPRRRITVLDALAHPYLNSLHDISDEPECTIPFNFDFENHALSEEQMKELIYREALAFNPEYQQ

How the values were obtained:
[1] = target: T1, nLUC-YDA-Δ334 (Arabidopsis thaliana) (UniProt Q9CAD5); assay: split reporter; firefly luciferase complementation imaging; 35S-driven nLUC and cLUC constructs co-infiltrated by agrobacterium GV3101 into N. benthamiana leaves, 3 days at 22 °C, CCD imaging
T1 sequence: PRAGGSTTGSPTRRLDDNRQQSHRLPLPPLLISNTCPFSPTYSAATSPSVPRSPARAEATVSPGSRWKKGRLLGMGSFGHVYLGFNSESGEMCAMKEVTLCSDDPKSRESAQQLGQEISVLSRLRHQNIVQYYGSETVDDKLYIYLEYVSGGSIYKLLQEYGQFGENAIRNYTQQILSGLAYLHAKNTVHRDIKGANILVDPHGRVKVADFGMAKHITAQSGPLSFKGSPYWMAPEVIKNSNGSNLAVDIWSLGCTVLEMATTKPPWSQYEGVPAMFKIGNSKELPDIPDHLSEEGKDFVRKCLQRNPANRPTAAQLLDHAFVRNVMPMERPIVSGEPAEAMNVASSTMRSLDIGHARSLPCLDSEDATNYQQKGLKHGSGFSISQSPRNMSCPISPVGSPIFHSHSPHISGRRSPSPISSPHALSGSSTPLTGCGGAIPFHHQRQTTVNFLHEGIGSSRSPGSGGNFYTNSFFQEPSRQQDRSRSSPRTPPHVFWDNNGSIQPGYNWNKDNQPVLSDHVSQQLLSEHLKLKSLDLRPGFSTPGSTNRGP

[2] = target: T2, YDA-nLUC (Arabidopsis thaliana) (UniProt Q9CAD5); assay: as above
T2 sequence: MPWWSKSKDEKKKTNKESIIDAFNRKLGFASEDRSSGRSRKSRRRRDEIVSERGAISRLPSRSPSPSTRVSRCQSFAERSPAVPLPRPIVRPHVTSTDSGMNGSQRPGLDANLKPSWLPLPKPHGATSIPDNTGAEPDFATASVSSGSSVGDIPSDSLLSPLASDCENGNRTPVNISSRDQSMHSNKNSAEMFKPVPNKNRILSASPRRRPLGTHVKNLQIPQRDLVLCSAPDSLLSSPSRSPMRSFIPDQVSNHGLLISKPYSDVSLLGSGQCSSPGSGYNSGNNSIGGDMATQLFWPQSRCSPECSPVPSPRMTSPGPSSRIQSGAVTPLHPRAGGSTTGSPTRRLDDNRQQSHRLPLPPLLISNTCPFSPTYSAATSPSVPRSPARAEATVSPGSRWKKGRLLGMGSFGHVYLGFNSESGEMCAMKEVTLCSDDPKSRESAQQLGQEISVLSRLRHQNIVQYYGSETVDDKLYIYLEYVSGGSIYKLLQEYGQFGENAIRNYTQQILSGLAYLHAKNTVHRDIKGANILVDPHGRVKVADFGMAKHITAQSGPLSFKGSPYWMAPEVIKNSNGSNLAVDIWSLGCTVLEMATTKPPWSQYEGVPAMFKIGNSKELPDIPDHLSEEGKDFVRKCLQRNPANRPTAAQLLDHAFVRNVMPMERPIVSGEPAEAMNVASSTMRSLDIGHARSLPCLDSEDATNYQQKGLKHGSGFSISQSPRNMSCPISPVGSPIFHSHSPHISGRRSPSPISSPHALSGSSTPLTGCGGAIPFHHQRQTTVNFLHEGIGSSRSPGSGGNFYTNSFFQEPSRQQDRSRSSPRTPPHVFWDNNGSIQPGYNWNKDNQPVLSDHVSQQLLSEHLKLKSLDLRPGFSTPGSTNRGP

[3] = target: T3, YDA-Kinase-nLUC (Arabidopsis thaliana) (UniProt Q9CAD5); assay: as above
T3 sequence: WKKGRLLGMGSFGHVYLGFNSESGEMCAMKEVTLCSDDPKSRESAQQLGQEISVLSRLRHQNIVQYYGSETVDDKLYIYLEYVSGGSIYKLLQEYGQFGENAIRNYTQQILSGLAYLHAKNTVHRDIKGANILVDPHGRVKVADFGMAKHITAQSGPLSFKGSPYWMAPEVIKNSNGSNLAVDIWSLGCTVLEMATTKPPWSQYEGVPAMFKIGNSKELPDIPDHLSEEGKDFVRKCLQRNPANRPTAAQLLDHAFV

[4] = target: T4, MKK4 (expressed in Arabidopsis protoplasts) (Arabidopsis thaliana) (UniProt O80397); assay: co-IP; Arabidopsis protoplasts transformed with plasmids, 12 hours at 22 °C; anti-FLAG, anti-HA or anti-GFP agarose, 50 mM HEPES pH 7.5, 150 mM KCl, 1 mM EDTA, 0.5% Triton X-100, 1 mM DTT; immunoblot
T4 sequence: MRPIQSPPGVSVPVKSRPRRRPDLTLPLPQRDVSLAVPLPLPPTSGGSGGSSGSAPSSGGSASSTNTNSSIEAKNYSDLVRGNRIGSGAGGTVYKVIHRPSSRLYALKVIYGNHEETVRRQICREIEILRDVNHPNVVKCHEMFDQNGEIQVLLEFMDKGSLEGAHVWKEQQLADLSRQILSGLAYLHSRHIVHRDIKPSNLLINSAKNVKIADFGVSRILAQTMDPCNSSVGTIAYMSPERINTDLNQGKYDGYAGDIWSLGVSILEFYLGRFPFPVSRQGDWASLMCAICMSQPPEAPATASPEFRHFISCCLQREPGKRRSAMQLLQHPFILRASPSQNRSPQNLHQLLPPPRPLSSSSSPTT

[5] = target: MPK6 (expressed in Arabidopsis protoplasts) (Arabidopsis thaliana) (UniProt Q39026); assay: as above
[6] = target: T5, MKK5 (expressed in Arabidopsis protoplasts) (Arabidopsis thaliana) (UniProt Q8RXG3); assay: as above
T5 sequence: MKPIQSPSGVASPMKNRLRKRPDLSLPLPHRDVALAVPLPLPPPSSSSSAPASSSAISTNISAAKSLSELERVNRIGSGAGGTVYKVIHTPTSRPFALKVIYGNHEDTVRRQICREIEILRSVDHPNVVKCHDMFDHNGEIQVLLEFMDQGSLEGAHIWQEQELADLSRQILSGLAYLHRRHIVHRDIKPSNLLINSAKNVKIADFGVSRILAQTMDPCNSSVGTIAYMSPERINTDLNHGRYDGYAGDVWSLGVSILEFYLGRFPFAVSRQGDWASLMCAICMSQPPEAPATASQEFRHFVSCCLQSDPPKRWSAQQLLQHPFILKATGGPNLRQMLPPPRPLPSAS

[7] = target: MPK6-nLUC (Arabidopsis thaliana) (UniProt Q39026); assay: split reporter; firefly luciferase complementation imaging; 35S-driven nLUC and cLUC constructs co-infiltrated by agrobacterium GV3101 into N. benthamiana leaves, 3 days at 22 °C, CCD imaging
[8] = target: T6, MPK3-nLUC (Arabidopsis thaliana) (UniProt Q39023); assay: as above
T6 sequence: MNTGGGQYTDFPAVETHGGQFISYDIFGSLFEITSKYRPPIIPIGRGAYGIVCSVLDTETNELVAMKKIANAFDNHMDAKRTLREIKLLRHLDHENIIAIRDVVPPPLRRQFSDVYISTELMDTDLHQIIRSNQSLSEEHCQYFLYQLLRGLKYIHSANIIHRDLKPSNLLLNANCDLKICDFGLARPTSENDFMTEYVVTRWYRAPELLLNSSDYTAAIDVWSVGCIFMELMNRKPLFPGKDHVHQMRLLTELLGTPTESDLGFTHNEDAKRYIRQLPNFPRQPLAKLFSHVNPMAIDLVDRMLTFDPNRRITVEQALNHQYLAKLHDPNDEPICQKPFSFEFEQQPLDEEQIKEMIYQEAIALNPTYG

- binding [1]: no binding
- binding [2]: no binding
- binding [3]: no binding
B1: cLUC-SSP (protein, UniProt Q7XJT7 1-465)
chain: MGCCYSLSSTVDPVQDHTTDASSEPRNGGGEDPPLTKFSFSALKTATNHFSPENIVSDQTSDVVFKGRLQNGGFVAIKRFNNMAWSDPKLFLEEAQRVGKLRHKRLVNLIGYCCDGDKRFLVADFMANDTLAKRLFQRKYQTMDWSIRLRVAYFVAEALDYCNTAGFASYNNLSAYKVLFDEDGDACLSCFGLMKEINNDQITTGSVNPENVIYRFGTVLVNLLSGKQIPPSHAPEMIHRKNVFKLMDPYLKGKFSIDEANVVYKLASQCLKYEGQESPNTKEIVATLETLQTRTEAPSYEVVEMTNQEKDASSSSNLSPLGEACLRMDLASIHSILVLAGYDDDKDIIELSFEEWIQEVKELQDVRRNGDRAFVEQDFKTAIACYSQFVEERSLVYPSVYARRSLSYLFCDEPEKALLDGMHAQGVFPDWPTAFYLQSVALAKLDMNTDSADTLKEAALLEVKK

- binding [4]: binds
- binding [5]: binds
- binding [6]: binds
B2: AGB1 (expressed in Arabidopsis protoplasts) (protein, UniProt P49177 1-377)
chain: MSVSELKERHAVATETVNNLRDQLRQRRLQLLDTDVARYSAAQGRTRVSFGATDLVCCRTLQGHTGKVYSLDWTPERNRIVSASQDGRLIVWNALTSQKTHAIKLPCAWVMTCAFSPNGQSVACGGLDSVCSIFSLSSTADKDGTVPVSRMLTGHRGYVSCCQYVPNEDAHLITSSGDQTCILWDVTTGLKTSVFGGEFQSGHTADVLSVSISGSNPNWFISGSCDSTARLWDTRAASRAVRTFHGHEGDVNTVKFFPDGYRFGTGSDDGTCRLYDIRTGHQLQVYQPHGDGENGPVTSIAFSVSGRLLFAGYASNNTCYVWDTLLGEVVLDLGLQQDSHRNRISCLGLSADGSALCTGSWDSNLKIWAFGGHRRVI

- binding [7]: binds
- binding [8]: binds
B3: AGG2 (purified, pull-down) (natural protein, Arabidopsis thaliana, UniProt Q93V47 1-100, looked up)
chain: MEAGSSNSSGQLSGRVVDTRGKHRIQAELKRLEQEARFLEEELEQLEKMDNASASCKEFLDSVDSKPDPLLPETTGPVNATWDQWFEGPKEAKRCGCSIL
notes: AGG2, G protein gamma subunit 2, Arabidopsis thaliana, At3G22942; fusion protein; source: E. coli, purified (glutathione agarose beads)

- binding [7]: binds
- binding [8]: binds
B4: AGG1 (purified, pull-down) (natural protein, Arabidopsis thaliana, UniProt Q9FDX9 1-98, looked up)
chain: MREETVVYEQEESVSHGGGKHRILAELARVEQEVAFLEKELKEVENTDIVSTVCEELLSVIEKGPDPLLPLTNGPLNLGWDRWFEGPNGGEGCRCLIL
notes: AGG1, G protein gamma subunit 1, Arabidopsis thaliana, At3G63420; fusion protein; source: E. coli, purified (glutathione agarose beads)

- binding [4]: no binding
- binding [5]: binds
- binding [6]: no binding
B5: GPA1 (expressed in Arabidopsis protoplasts) (protein, UniProt P18064 1-383)
chain: MGLLCSRSRHHTEDTDENTQAAEIERRIEQEAKAEKHIRKLLLLGAGESGKSTIFKQIKLLFQTGFDEGELKSYVPVIHANVYQTIKLLHDGTKEFAQNETDSAKYMLSSESIAIGEKLSEIGGRLDYPRLTKDIAEGIETLWKDPAIQETCARGNELQVPDCTKYLMENLKRLSDINYIPTKEDVLYARVRTTGVVEIQFSPVGENKKSGEVYRLFDVGGQRNERRKWIHLFEGVTAVIFCAAISEYDQTLFEDEQKNRMMETKELFDWVLKQPCFEKTSFMLFLNKFDIFEKKVLDVPLNVCEWFRDYQPVSSGKQEIEHAYEFVKKKFEELYYQNTAPDRVDRVFKIYRTTALDQKLVKKTFKLVDETLRRRNLLEAGLL

- binding [7]: binds
- binding [8]: binds
B6: cLUC-GPA1 (protein, UniProt P18064 1-383)
chain: B5 chain

- binding [7]: binds
- binding [8]: binds
B7: GPA1^Q222L (purified, pull-down) (natural protein, Arabidopsis thaliana, UniProt P18064 1-383, looked up)
chain: B5 chain with Q222L
notes: GPA1, G protein alpha subunit, Arabidopsis thaliana, At2G26300, with Q222L; fusion protein; source: E. coli, purified (glutathione agarose beads)
